Measured data: PubChem BioAssay AID686943 (Drosophila RNAi Screening Center, 2013)
The screen tested about 23,000 reagents; below is a random part of those with a known target gene and a result. 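Extra replicates exist only for a retested subset of genes; insulin dose and duration not given; both raised and lowered dpERK matter.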 The numbers tell different reagents against one gene apart. Further read-outs or replicates are left out here. Not given: the amount of reagent, the time to read-out.

- Screen: 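Search across the genome for regulators of signalling from receptor tyrosine kinase to ERK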 (primary screen)
- Cells: Drosophila S2R+ haemocyte-like cells expressing YFP-tagged ERK (Rolled)
- Reagent: long dsRNA against Drosophila genes
- Challenge: insulin stimulation versus unstimulated cells; dose and duration not given
- Read-out: 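Antibody staining for doubly phosphorylated ERK divided by ERK-YFP signal, as plate z-scores, in insulin-treated and untreated cells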
- Direction: replicate 1, z-score of dpERK with insulin: higher = more active ERK per ERK-YFP after insulin

Against hb, the entry reads replicate 1, z-score of dpERK with insulin -0.29. Against CG32447 #1 the deposit lists replicate 1, z-score of dpERK with insulin 0.67. After knock-down of CG32447 #2, the record shows replicate 1, z-score of dpERK with insulin 0.53. CG5886 scored replicate 1, z-score of dpERK with insulin 0.41. For CG2962 the deposit lists replicate 1, z-score of dpERK with insulin 0.1. Silencing of CycB came out at: replicate 1, z-score of dpERK with insulin -0.43.

With knock-down of Syx1A #1, the screen gave replicate 1, z-score of dpERK with insulin 0.31. Depletion of Syx1A #2 came out at: replicate 1, z-score of dpERK with insulin -0.46. Depletion of CR10102 gave: replicate 1, z-score of dpERK with insulin -0.96. Against S6k, the entry reads replicate 1, z-score of dpERK with insulin 2.19. Adi1 #1 showed replicate 1, z-score of dpERK with insulin 1.26. Adi1 #2 scored replicate 1, z-score of dpERK with insulin 0.13.

Silencing of not resulted in: replicate 1, z-score of dpERK with insulin -0.4. With knock-down of TfIIA-L, the record shows replicate 1, z-score of dpERK with insulin 0.47. CG9705 scored replicate 1, z-score of dpERK with insulin 0.63. For ranshi, the entry reads replicate 1, z-score of dpERK with insulin 0.39. With knock-down of CG3999, the screen gave replicate 1, z-score of dpERK with insulin 0.34. Knock-down of CG2061 resulted in: replicate 1, z-score of dpERK with insulin -0.09.

Against zf30C the deposit lists replicate 1, z-score of dpERK with insulin -1.64. Or7a scored replicate 1, z-score of dpERK with insulin 0.23. Depletion of PCID2 resulted in: replicate 1, z-score of dpERK with insulin 0.86. After knock-down of Art1 the results were replicate 1, z-score of dpERK with insulin 0.19. Against Gprk1 #1, the values are replicate 1, z-score of dpERK with insulin 0.29. With knock-down of Gprk1 #2 the results were replicate 1, z-score of dpERK with insulin -0.48.

Depletion of Strip resulted in: replicate 1, z-score of dpERK with insulin 0.73. Ac3 scored replicate 1, z-score of dpERK with insulin 0.09. CG11122 scored replicate 1, z-score of dpERK with insulin 0.77. For CG18507 #1, the entry reads replicate 1, z-score of dpERK with insulin -0.07. CG18507 #2 gave replicate 1, z-score of dpERK with insulin 0.42. With knock-down of CG5770 the results were replicate 1, z-score of dpERK with insulin -0.93.

Against CG30466, the entry reads replicate 1, z-score of dpERK with insulin 0.37. Against Sil1, the values are replicate 1, z-score of dpERK with insulin 0.65. Cpr76Bb #1 gave replicate 1, z-score of dpERK with insulin 1.09. Knock-down of Cpr76Bb #2 resulted in: replicate 1, z-score of dpERK with insulin 2.44. With knock-down of Pgant6, the record shows replicate 1, z-score of dpERK with insulin -0.96. Silencing of GlcAT-I resulted in: replicate 1, z-score of dpERK with insulin 0.33.

Against CG32023, the entry reads replicate 1, z-score of dpERK with insulin 0.59. Tango1 showed replicate 1, z-score of dpERK with insulin -0.47. For bgcn #1 the deposit lists replicate 1, z-score of dpERK with insulin -1.24. bgcn #2 scored replicate 1, z-score of dpERK with insulin -0.19.
